Experimental data from doi:10.1101/2020.04.25.061606.
No constants are given. Whether binding was seen depends on the method and setting. Some entries that bind do so weakly or less than the wild type.

By UniProt entry, the sequences of proteins in these tests, tags left out.
UniProt Q06547, whole entry: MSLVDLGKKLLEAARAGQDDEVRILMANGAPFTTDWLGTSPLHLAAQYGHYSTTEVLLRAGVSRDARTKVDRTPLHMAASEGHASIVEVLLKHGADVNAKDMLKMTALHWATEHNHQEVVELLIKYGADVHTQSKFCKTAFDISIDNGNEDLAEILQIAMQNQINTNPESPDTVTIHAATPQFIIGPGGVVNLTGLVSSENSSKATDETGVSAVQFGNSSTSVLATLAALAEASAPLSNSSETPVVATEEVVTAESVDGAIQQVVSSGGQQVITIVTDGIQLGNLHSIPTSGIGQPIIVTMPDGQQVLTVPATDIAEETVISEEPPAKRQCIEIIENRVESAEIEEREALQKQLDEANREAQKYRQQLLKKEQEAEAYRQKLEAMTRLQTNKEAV

Molecular target: long isoform of GABPB1 (GABPB1L) (human) (UniProt Q06547)
Assay: co-purification

binding: binds
B1: GA binding protein A (GABPA) (protein, UniProt Q06546 1-454)
chain: MTKREAEELIEIEIDGTEKAECTEESIVEQTYAPAECVSQAIDINEPIGNLKKLLEPRLQCSLDAHEICLQDIQLDPERSLFDQGVKTDGTVQLSVQVISYQGIEPKLNILEIVKPADTVEVVIDPDAHHAESEAHLVEEAQVITLDGTKHITTISDETSEQVTRWAAALEGYRKEQERLGIPYDPIQWSTDQVLHWVVWVMKEFSMTDIDLTTLNISGRELCSLNQEDFFQRVPRGEILWSHLELLRKYVLASQEQQMNEIVTIDQPVQIIPASVQSATPTTIKVINSSAKAAKVQRAPRISGEDRSSPGNRTGNNGQIQLWQFLLELLTDKDARDCISWVGDEGEFKLNQPELVAQKWGQRKNKPTMNYEKLSRALRYYYDGDMICKVQGKRFVYKFVCDLKTLIGYSAAELNRLVTECEQKKLAKMQLHGIAQPVTAVALATASLQTEKDN
